Article PMC8562486
Results are given in words; binding and its absence hold for the method and conditions named. Binding seen in cells or lysates may run through a third protein. These calls come from enrichment with a bait or labelling near it, and not all partners need be listed.

By UniProt entry, the sequences of proteins in these tests, tags left out. Where a name states a change or a piece, a line headed by the entry shows the natural chain unless it says otherwise. Chains listed by the source or under a name are the forms on record and can include a tag or linker.
UniProt Q9QR71: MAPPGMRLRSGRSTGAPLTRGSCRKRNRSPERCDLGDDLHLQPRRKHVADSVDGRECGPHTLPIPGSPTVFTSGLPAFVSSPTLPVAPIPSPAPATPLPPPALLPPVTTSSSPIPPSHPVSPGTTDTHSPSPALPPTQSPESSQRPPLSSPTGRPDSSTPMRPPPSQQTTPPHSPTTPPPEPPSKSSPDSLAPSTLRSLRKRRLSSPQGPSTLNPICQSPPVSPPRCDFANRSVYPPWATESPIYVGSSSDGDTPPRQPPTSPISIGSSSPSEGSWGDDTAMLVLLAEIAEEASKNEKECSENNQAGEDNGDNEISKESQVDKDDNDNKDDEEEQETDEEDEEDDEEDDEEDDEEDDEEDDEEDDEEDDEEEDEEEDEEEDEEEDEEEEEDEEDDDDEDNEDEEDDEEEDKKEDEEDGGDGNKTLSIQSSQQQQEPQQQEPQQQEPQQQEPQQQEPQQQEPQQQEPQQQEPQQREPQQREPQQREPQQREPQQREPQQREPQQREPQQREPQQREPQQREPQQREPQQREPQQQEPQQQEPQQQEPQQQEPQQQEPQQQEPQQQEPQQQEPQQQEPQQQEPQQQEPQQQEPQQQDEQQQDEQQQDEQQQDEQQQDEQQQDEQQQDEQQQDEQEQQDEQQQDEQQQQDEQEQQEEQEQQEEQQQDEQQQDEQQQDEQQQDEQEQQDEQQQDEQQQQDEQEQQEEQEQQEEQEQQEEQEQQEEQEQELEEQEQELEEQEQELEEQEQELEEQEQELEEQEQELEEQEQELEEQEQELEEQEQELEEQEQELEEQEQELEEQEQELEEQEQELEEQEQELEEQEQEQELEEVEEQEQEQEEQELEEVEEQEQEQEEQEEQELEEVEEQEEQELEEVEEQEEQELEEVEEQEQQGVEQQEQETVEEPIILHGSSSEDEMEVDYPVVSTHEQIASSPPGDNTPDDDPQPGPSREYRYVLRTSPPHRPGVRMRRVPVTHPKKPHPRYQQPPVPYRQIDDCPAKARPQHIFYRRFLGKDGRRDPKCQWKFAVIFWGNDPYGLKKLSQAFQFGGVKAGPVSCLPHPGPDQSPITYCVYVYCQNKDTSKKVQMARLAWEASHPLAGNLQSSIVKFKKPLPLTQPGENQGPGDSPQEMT
UniProt P06733: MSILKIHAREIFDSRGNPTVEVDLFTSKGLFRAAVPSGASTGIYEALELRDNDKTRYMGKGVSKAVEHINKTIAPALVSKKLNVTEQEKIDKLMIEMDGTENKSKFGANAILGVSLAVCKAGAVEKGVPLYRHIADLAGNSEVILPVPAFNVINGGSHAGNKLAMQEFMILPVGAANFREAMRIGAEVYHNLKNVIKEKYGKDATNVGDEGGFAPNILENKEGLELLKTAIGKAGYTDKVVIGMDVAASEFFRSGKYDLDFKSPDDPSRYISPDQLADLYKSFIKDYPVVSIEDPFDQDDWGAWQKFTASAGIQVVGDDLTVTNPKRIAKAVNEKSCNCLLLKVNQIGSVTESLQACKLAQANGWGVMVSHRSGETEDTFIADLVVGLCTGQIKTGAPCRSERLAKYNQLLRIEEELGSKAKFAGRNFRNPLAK
UniProt P11940: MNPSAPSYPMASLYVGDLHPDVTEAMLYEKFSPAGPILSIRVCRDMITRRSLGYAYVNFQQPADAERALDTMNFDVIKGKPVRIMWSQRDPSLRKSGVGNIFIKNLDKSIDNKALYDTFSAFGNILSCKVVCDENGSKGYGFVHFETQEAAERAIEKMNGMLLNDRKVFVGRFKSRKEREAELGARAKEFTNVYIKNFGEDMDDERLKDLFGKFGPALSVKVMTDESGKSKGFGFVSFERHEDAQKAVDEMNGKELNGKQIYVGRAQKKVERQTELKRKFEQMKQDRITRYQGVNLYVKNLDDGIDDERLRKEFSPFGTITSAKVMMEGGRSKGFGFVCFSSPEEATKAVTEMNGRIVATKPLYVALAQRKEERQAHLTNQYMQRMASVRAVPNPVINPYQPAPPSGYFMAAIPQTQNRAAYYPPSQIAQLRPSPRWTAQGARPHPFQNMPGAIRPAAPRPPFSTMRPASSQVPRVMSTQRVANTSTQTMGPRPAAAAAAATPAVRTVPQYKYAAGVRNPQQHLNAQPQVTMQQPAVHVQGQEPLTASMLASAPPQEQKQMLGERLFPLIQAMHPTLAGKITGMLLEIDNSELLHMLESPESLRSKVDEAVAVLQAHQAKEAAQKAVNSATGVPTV
UniProt P15311: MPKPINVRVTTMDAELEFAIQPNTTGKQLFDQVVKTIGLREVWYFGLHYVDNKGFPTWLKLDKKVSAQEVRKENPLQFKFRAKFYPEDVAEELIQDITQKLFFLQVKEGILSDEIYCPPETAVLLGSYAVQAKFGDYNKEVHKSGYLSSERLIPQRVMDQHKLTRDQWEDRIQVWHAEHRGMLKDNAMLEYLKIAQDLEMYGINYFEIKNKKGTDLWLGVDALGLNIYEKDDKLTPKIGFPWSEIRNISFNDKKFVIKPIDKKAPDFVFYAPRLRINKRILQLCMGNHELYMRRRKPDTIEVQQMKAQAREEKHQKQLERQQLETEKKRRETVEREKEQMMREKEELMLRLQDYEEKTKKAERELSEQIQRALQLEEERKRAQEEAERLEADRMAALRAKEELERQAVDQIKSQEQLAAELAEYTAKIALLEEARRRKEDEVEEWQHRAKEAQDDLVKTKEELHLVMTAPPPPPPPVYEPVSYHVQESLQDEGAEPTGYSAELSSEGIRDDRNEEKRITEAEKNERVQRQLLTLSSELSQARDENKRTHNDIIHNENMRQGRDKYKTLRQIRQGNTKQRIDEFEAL
UniProt P67809: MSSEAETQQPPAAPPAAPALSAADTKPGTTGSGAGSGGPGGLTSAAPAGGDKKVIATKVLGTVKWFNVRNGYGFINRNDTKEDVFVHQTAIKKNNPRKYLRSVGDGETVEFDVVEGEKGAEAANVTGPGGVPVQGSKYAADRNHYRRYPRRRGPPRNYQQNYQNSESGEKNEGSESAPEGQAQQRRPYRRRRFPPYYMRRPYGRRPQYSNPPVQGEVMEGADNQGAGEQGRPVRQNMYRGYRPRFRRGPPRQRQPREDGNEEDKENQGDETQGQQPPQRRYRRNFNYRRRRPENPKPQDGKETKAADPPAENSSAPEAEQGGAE
Heterogeneous nuclear ribonucleoprotein U isoform B (Q00839-2, form named): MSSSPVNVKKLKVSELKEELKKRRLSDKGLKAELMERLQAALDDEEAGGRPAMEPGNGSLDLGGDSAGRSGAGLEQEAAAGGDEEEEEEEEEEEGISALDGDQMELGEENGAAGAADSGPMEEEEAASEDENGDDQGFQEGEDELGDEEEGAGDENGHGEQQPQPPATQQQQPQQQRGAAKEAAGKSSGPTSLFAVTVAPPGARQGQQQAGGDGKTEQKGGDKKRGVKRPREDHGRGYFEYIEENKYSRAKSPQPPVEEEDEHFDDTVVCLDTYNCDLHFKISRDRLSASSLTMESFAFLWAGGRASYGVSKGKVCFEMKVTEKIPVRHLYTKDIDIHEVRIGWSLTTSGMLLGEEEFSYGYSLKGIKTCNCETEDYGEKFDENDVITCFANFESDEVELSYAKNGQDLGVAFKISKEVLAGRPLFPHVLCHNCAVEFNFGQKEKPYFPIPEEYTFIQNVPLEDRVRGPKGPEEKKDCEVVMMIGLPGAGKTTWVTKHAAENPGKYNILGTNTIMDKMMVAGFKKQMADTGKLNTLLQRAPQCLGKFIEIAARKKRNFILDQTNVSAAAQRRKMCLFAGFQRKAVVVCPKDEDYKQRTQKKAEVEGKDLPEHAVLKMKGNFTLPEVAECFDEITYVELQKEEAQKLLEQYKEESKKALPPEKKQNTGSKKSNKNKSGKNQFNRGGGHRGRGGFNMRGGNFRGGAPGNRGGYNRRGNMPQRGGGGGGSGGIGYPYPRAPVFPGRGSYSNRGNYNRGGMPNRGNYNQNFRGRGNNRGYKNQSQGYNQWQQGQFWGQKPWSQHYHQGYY
UniProt P60953: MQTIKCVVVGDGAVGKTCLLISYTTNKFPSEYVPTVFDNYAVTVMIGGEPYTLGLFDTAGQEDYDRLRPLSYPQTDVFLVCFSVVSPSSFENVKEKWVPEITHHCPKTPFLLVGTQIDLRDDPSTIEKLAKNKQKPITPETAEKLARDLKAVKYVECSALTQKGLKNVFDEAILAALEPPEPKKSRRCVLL

Biological target: YFP-LANA^WT-Flag (wild-type latency-associated nuclear antigen) (Kaposi's sarcoma-associated herpesvirus (KSHV)) (UniProt Q9QR71)
Assay: affinity purification with mass spectrometry

Molecule	binding
Alpha-enolase isoform 1 (from UniProt P06733 1-434)	binds
Polyadenylate-binding protein 1 (from UniProt P11940 1-636)	binds
Ezrin (from UniProt P15311 1-586)	binds
Nuclease-sensitive element-binding protein 1 (from UniProt P67809 1-324)	binds
Heterogeneous nuclear ribonucleoprotein U isoform B (from UniProt Q00839-2 1-806)	binds
Cell division control protein 42 homolog isoform 1 precursor (from UniProt P60953 1-191)	binds
Serpin H1 precursor (protein, UniProt P50454 19-418) AEVKKPAAAAAPGTAEKLSPKAATLAERSAGLAFSLYQAMAKDQAVENILVSPVVVASSLGLVSLGGKATTASQAKAVLSAEQLRDEEVHAGLGELLRSLSNSTARNVTWKLGSRLYGPSSVSFADDFVRSSKQHYNCEHSKINFRDKRSALQSINEWAAQTTDGKLPEVTKDVERTDGALLVNAMFFKPHWDEKFHHKMVDNRGFMVTRSYTVGVMMMHRTGLYNYYDDEKEKLQIVEMPLAHKLSSLIILMPHHVEPLERLEKLLTKEQLKIWMGKMQKKAVAISLPKGVVEVTHDLQKHLAGLGLTEAIDKNKADLSRMSGKKDLYLASVFHATAFELDTDGNPFDQDIYGREELRSPKLFYADHPFIFLVRDTQSGSLLFIGRLVRPKGDKMRDEL	binds
Transketolase isoform 1 (protein, UniProt P29401 1-623) MESYHKPDQQKLQALKDTANRLRISSIQATTAAGSGHPTSCCSAAEIMAVLFFHTMRYKSQDPRNPHNDRFVLSKGHAAPILYAVWAEAGFLAEAELLNLRKISSDLDGHPVPKQAFTDVATGSLGQGLGAACGMAYTGKYFDKASYRVYCLLGDGELSEGSVWEAMAFASIYKLDNLVAILDINRLGQSDPAPLQHQMDIYQKRCEAFGWHAIIVDGHSVEELCKAFGQAKHQPTAIIAKTFKGRGITGVEDKESWHGKPLPKNMAEQIIQEIYSQIQSKKKILATPPQEDAPSVDIANIRMPSLPSYKVGDKIATRKAYGQALAKLGHASDRIIALDGDTKNSTFSEIFKKEHPDRFIECYIAEQNMVSIAVGCATRNRTVPFCSTFAAFFTRAFDQIRMAAISESNINLCGSHCGVSIGEDGPSQMALEDLAMFRSVPTSTVFYPSDGVATEKAVELAANTKGICFIRTSRPENAIIYNNNEDFQVGQAKVVLKSKDDQVTVIGAGVTLHEALAAAELLKKEKINIRVLDPFTIKPLDRKLILDSARATKGRILTVEDHYYEGGIGEAVSSAVVGEPGITVTHLAVNRVPRSGKPAELLKMFGIDRDAIAQAVRGLITKA	binds
T-complex protein 1 subunit beta isoform 1 (protein, UniProt P78371 1-535) MASLSLAPVNIFKAGADEERAETARLTSFIGAIAIGDLVKSTLGPKGMDKILLSSGRDASLMVTNDGATILKNIGVDNPAAKVLVDMSRVQDDEVGDGTTSVTVLAAELLREAESLIAKKIHPQTIIAGWREATKAAREALLSSAVDHGSDEVKFRQDLMNIAGTTLSSKLLTHHKDHFTKLAVEAVLRLKGSGNLEAIHIIKKLGGSLADSYLDEGFLLDKKIGVNQPKRIENAKILIANTGMDTDKIKIFGSRVRVDSTAKVAEIEHAEKEKMKEKVERILKHGINCFINRQLIYNYPEQLFGAAGVMAIEHADFAGVERLALVTGGEIASTFDHPELVKLGSCKLIEEVMIGEDKLIHFSGVALGEACTIVLRGATQQILDEAERSLHDALCVLAQTVKDSRTVYGGGCSEMLMAHAVTQLANRTPGKEAVAMESYAKALRMLPTIIADNAGYDSADLVAQLRAAHSEGNTTAGLDMREGTIGDMAILGITESFQVKRQVLLSAAEAAEVILRVDNIIKAAPRKRVPDHHPC	binds
